Ends that are not written are not given here. * marks the point of attachment. NHNH2 = NN*
Legend:
Settings in all cases: whole synthesis, scale of the general procedure 0.5 mmol, 25 μmol for longer peptides
[1] = general procedure: Fmoc solid-phase peptide synthesis; Rink amide MBHA; HMBA-AM; TBTU/base (DIPEA or NMM); HATU/DIPEA for difficult couplings
[2] = general procedure: Fmoc solid-phase peptide synthesis; Rink amide MBHA; 2-chlorotrityl resin; HMBA-AM; TBTU/base (DIPEA or NMM); HATU/DIPEA for difficult couplings
[3] = general procedure: Fmoc solid-phase peptide synthesis; Rink amide MBHA; TBTU/base (DIPEA or NMM); HATU/DIPEA for difficult couplings

Q: With E(NHNH2)SPTA-NH2 as the substance, how does the crude yield [1] read?
A: The crude yield was 76%.

Q: For “H-Gln(NMe)-Phe-Lys-Ala-Glu-NH2 (FKAE; N-terminal N-methyl Gln; C-terminal amide; printed: Phe-Lys-Ala-Glu-)”, which crude yield [2] is on record?
A: Its crude yield is 78%.

Q: Which crude yield [3] does the source give for H-Gln-Lys(Gln)-Arg-Leu-Ala-NH2 (QKRLA) here?
A: The crude yield was 95%.
